Reference: PubChem BioAssay AID504444 (National Center for Advancing Translational Sciences (NCATS), 2011)
In all, about 360,000 compounds went through this assay and about 7,500 (2.1%) were called active. The inconclusive results got no clear call from the source; some entries with a clear call stand among them for comparison. The call rests on the fitted dose curve; in most records, active means well fitted inhibition curve with a large enough effect; inconclusive means small, poorly fitted or top-dose-only effect, or effect the other way; inactive means flat fitted curve, though single readings scatter. A potency beside an inconclusive call is a rough fit, not a confirmed value.

Assay: Nrf2 qHTS screen for inhibitors; further: nearly all actives have a fitted effect of over 60% in size
Conditions: A549 ARE-Fluc reporter, luciferase luminescence, 18-24 h; activity change, negative = inhibition: at 46 µM (top of the series)
Method in brief: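 Cells were seeded and rested 2 h, then exposed to compounds for 18-24 h. CellTiter-Fluor was read first as a viability measure. BugLite was added 15 min before the final luminescent read of ARE-luciferase activity in A549 cells.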
On the % scale 0 is the no-effect control and ±100 the full control effect; potency means the concentration at half of the fitted maximal effect.

SMILES | Potency | activity change, negative = inhibition
COc1ccccc1NC(=O)Nc1cc(NC(=O)Nc2ccccc2OC)c(C)nc1C | inconclusive: 29.1 µM [falling, single point] | 
Oc1[nH]c2ccc(Br)cc2c1N=NC(=S)NCC1CCCO1 (stereo unspecified) | inconclusive: 20.6 µM [falling, single point] | 
CCO[C@@H]1OC(C(=O)NCc2nc3ccccc3[nH]2)=C[C@H](c2ccc(C(F)(F)F)cc2)[C@H]1CCCO | inconclusive: 29.1 µM [falling, single point] | 
O=C(CNC(=O)c1ccco1)Nc1ccc(Cl)cc1 | inconclusive: 6.51 µM [activator, partial curve] | 
CN(C(=O)COC(=O)/C=C/c1ccc2ccccc2n1)C1CCS(=O)(=O)C1 (stereo unspecified) | inconclusive: 14.6 µM [falling, partial curve] | 
Cc1[nH]c2ccccc2c1C(=O)CSc1ccccc1 | inconclusive: 29.1 µM [activator, single point] | 
O=C(Nc1nnc(-c2ccco2)o1)c1ccc([N+](=O)[O-])s1 | active: 20.6 µM | 
CCOC(=O)CSc1nc(N)c(C(=O)Nc2ccc(N(C)C)cc2)s1 | inconclusive: 11.6 µM [falling, partial curve] | 
COC(=O)c1ccc(N)cc1O |  | inactive: 0.698%
CCOc1ccc(NC(=O)NC2CCCCCCC2)cc1 | inconclusive: 3.26 µM [activator, full curve] | 
O=C(Nc1cccc(Cl)c1)N1CCc2ccccc2C1 | inconclusive: 6.51 µM [activator, partial curve] | 
COc1ccccc1-c1cc2nc(C)c(CCC(=O)NCCc3cccc(C)c3)c(C)n2n1 | inconclusive: 16.4 µM [falling, single point] | 
Cc1ccc2c(c1)[C@H]1[C@H](CO2)[C@H](c2ccccc2)[C@]2(C)C(=O)Nc3ccccc3C(=O)N12 | inconclusive: 20.6 µM [falling, single point] | 
CC(C)CC(NS(=O)(=O)OCC(Cl)(Cl)Cl)c1ccccc1 (stereo unspecified) | inconclusive: 29.1 µM [falling, single point] | 
CCOCc1nnc(NC(=O)c2ccco2)s1 | inconclusive: 20.6 µM [activator, single point] | 
Cc1cccc(NS(=O)(=O)c2cc(C(=O)N3CCc4ccccc4C3)ccc2Cl)c1C | inconclusive: 20.6 µM [falling, single point] | 
O=S(=O)(c1ccccc1)c1cnc(-c2ccccc2)nc1N1CCCC1 | inconclusive: 29.1 µM [falling, single point] | 
CCc1cccc(-n2c(=O)c3cccnc3n2CC(=O)NCc2ccc(C)cc2)c1 | inconclusive: 16.4 µM [falling, partial curve, poor fit] | 
N#CC1(Nc2ccc3ccccc3c2)CCCC1 | inconclusive: 18.4 µM [activator, single point] | 
C[C@H](CO)N1C[C@H](C)[C@@H](CN(C)C(=O)NC2CCCCC2)Oc2c(NC(=O)Nc3ccc(C(F)(F)F)cc3)cccc2C1=O | inconclusive: 29.1 µM [falling, single point] | 
Cc1ccc(NC(=O)Cn2cnc3onc(-c4ccc(F)cc4)c3c2=O)c(Cl)c1 | inconclusive: 1.84 µM [activator, full curve, poor fit] | 
Cc1ccc(NC(=O)c2cc3ccccn3n2)cc1F | inconclusive: 2.91 µM [falling, partial curve, poor fit] | 

Entries of single compounds, looked up by structure.
CCOC(=O)CSc1nc(N)c(C(=O)Nc2ccc(N(C)C)cc2)s1 is listed as Potency: inconclusive: 11.6 µM [falling, partial curve]
N#CC1(Nc2ccc3ccccc3c2)CCCC1 is listed as Potency: inconclusive: 18.4 µM [activator, single point]
CCOc1ccc(NC(=O)NC2CCCCCCC2)cc1 is listed as Potency: inconclusive: 3.26 µM [activator, full curve]

The listing continues:

SMILES | Potency | activity change, negative = inhibition
COc1ccccc1N1CCN(C2CCCN(C(=O)c3cccc(-c4ccco4)c3)C2)CC1 (stereo unspecified) | inconclusive: 13 µM [falling, partial curve] | 
CCCS(=O)(=O)N1CCN=C1SCc1ccc(C)cc1 |  | inactive: -8.57%
CC(C)(C)c1ccc(/C=C2\SC(=O)N(CCNC(=O)c3cccc(S(=O)(=O)N4CCOCC4)c3)C2=O)cc1 | inconclusive: 7.31 µM [activator, partial curve, poor fit] | 
CC1CCN(C(=O)CSc2nc(N)c3c4c(sc3n2)CN(C)CC4)CC1 |  | inactive: 2.58%
Nc1ncccc1OCc1ccc(Cl)c(Cl)c1 | inconclusive: 10.3 µM [activator, partial curve] | 
O=C(CCN1C(=O)c2ccccc2S1(=O)=O)N1CCN(c2ccc(F)cc2)CC1 | inconclusive: 13 µM [falling, partial curve, poor fit] | 
COc1ccc(-c2noc(CN(C)C(=O)c3ccc4c(c3)OCO4)n2)cc1 | inconclusive: 29.1 µM [falling, single point] | 
COc1ccc(-c2cn3nc(N4CCC(C(=O)Nc5cc(Cl)ccc5C)CC4)sc3n2)cc1 |  | inactive: 12.5%
COc1cc(CN2CCN(Cc3ccc([N+](=O)[O-])cc3)CC2)c([N+](=O)[O-])cc1OC | active: 20.6 µM | 
C[n+]1cc2c3c(ccc2c2ccc4cc5c(cc4c21)OCO5)OCO3 | inconclusive: 29.1 µM [falling, single point] | 
CCCOc1ccc(C(=O)Nc2ccc3c(c2)OCO3)cc1 | inconclusive: 0.731 µM [activator, full curve, poor fit] | 
Cc1ccc(Cn2ccc(NC(=O)CCSc3nc(-c4ccco4)cc(C(F)(F)F)n3)n2)cc1 | inconclusive: 29.1 µM [falling, single point] | 
Cc1ccc(N2NC3(CCN(C(N)=O)CC3)NC2=O)cc1 |  | inactive: -9.75%
CC(C)c1cc(C(=O)NNC(=S)NC2CCCCC2)cs1 | inconclusive: 5.8 µM [activator, full curve] | 
O=C(Nc1nc2ccc(F)cc2s1)c1nc(S(=O)(=O)Cc2ccccc2F)ncc1Cl | inconclusive: 29.1 µM [falling, single point] | 
COc1cccc(OCC(=O)O/N=C(\N)c2ccncc2)c1 | inconclusive: 7.31 µM [activator, partial curve] | 
COc1ccc(C(=O)Nc2ccc3nc(SCC(=O)N(C)c4ccccc4)sc3c2)cc1 | inconclusive: 2.06 µM [falling, full curve, poor fit] | 
O=c1c2ccccc2ncn1CCCOc1ccccc1[N+](=O)[O-] | inconclusive: 6.51 µM [activator, single point] | 
Cn1c(CCNC(=O)C2CCCCC2)nc2cc(NC(=O)c3cccs3)ccc21 | inconclusive: 2.31 µM [falling, full curve, poor fit] | 
CNCc1cc2ccc(C)cc2[nH]c1=O |  | inactive: 22.5%
O=C(CSc1cn(CCNC(=O)c2cccc(C(F)(F)F)c2)c2ccccc12)Nc1ccc2c(c1)OCCO2 | active: 16.4 µM | 
CC1CC(C)CN(CC(=O)N2c3ccccc3CCc3ccccc32)C1 (stereo unspecified) |  | inactive: 11.5%

SMILES | Potency | activity change, negative = inhibition
Cc1ccc(Cl)cc1N1CCN(C(=O)CSc2cc(=O)n(C)c3ccccc23)CC1 | active: 16.4 µM | 
C=CCn1c(SCC(=O)Nc2cc3oc4ccccc4c3cc2OC)nnc1-c1cnccn1 | inconclusive: 23.1 µM [falling, single point] | 
Cc1cccc(NC(=O)C2CCN(S(=O)(=O)c3ccc4c(c3)OCCCO4)CC2)n1 | active: 14.6 µM | 
COC(=O)c1cc(-c2ccc(OC)cc2)nc2nc(SC)[nH]c(=O)c12 | inconclusive: 0.82 µM [falling, partial curve, poor fit] | 
CCC(C)NC(=O)c1cn(C)c(=O)c2cc(OC)c(OC)cc12 (stereo unspecified) | inconclusive: 20.6 µM [activator, partial curve, poor fit] | 
COc1ccc2sc(-c3ccc(N(C)C)cc3)c(C#CCCO)c2c1 |  | inactive: 3.16%
CCOc1ccccc1NC(=O)CSc1nc2nc(-c3cccs3)cc(C(F)(F)F)c2c(=O)[nH]1 | inconclusive: 18.4 µM [falling, single point] | 
CCc1ccc(NC(=O)CSc2nc3ccccc3c(=O)n2CCCC(=O)NCCCN2CCOCC2)cc1 | inconclusive: 1.64 µM [falling, partial curve, poor fit] | 
Cc1ccc(NS(=O)(=O)c2cc3c(cc2-c2ccsc2)NC(=O)CO3)cc1C |  | inactive: 9.5%
CCOCCSc1n[nH]c(=O)n1CCc1ccccc1 |  | inactive: -21.1%
Cc1[nH]c(-c2ccc(F)cc2)cc1C(=O)N1CCN(c2cccc(Cl)c2)CC1 | inconclusive: 29.1 µM [falling, single point] | 
CN1C(=O)/C(=C/c2ccccc2Cl)Sc2ccc(C(=O)NCc3cccnc3)cc21 | inconclusive: 18.4 µM [falling, single point] | 
c1ccc(OCCn2cnc3ccccc32)cc1 |  | inactive: 3.62%
CCCCOc1ccc(NC(=O)Cn2c(=O)ccc3c(C)cc(C)nc32)cc1 | inconclusive: 13 µM [falling, single point] | 
Cc1cc(N/N=C/c2cccc(F)c2)nc(NCc2ccccc2)n1 | inconclusive: 16.4 µM [falling, partial curve, poor fit] | 
Cc1nn(-c2cccc(Cl)c2)c(Cl)c1/C=N/NC(=O)c1cccnc1 | inconclusive: 8.2 µM [falling, partial curve] | 
Nc1ccc(-c2n[nH]c(=O)c3ccccc23)cc1N | active: 16.4 µM | 
O=C(Nc1cnc2ccccn2c1=O)c1ccc(Cl)cc1Cl | inconclusive: 0.326 µM [activator, full curve] | 
Nc1ncnc(Sc2ccc(Cl)cc2)c1[N+](=O)[O-] | inconclusive: 29.1 µM [falling, partial curve, poor fit] | 
Cc1ccccc1CNC(=O)c1ccccc1N(C)S(=O)(=O)c1ccccc1 | inconclusive: 10.3 µM [falling, partial curve] | 
Cc1nn(C)cc1CNC(=O)c1cc2n(n1)C(C(F)(F)F)CC(c1cccs1)N2 (stereo unspecified) | inconclusive: 1.64 µM [falling, full curve, poor fit] | 
CC(C)N(C(=O)Cn1cc(S(=O)(=O)Cc2ccc(Br)cc2)c2ccccc21)C(C)C | inconclusive: 11.6 µM [activator, partial curve, poor fit] | 
